Holding throughout (assay): two-hybrid; GAL4 binding domain baits (pDEST32) in yeast PJ69-4α systematically mated with GAL4 activating domain preys (pDEST22) in PJ69-4a; growth scored on SC lacking Trp, Leu and His with 0, 1, 3 or 5 mM 3-amino-1,2,4-triazole, four days at 20°C; in duplicate; SEP4 bait excluded (auto-activation)
The target of assay [1] is Actinidia FUL (not stated (ESTs from A. chinensis and A. arguta)) (UniProt F4ZKM0).
For assay [2], the target named is Actinidia SEP3 (Actinidia chinensis) (UniProt F4ZKM5).
Assay [3] addresses Actinidia AG (not stated (EST from A. arguta; full-length cDNA isolated from A. chinensis)) (UniProt F4ZKM4).

For one substance, binding results are on record in publication PMC3103426.

No constants are given. Whether binding was seen depends on the method and setting. Binding calls can cover weak binding; strength is not graded here.

With Actinidia SEP4 (from UniProt F4ZKM7), the binding result is recorded as “binds” in assay [1], “binds weakly” in assay [2] and “binds weakly” in assay [3].
